Data source: PubChem BioAssay AID1259308 (NCATS, 2017)

Purpose: 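Knock-downs that increase output of a recombinant reporter protein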 (primary screen)
Cells: human HEK293 embryonic kidney cells stably expressing firefly luciferase (HEK-CMV-Luc2-Hygro)
Reagents: single siRNA against human genes, 0.8 pmol siRNA per well
Duration: 72 h
Read-out: 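Luciferase light (ONE-Glo) measured on one replicate plate set and viability (CellTiter-Glo) on the other, scaled to a negative control siRNA, with robust z-scores and luciferase per cell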
Reading the numbers: total luciferase, z-score: higher = more reporter protein produced
Active means: 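Active when the median/MAD z-score for overall luciferase is greater than 3; a gene was taken forward for validation with new siRNAs if at least two of its three siRNAs passed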
Meaning of the calls: active = raised luciferase; inactive = no rise
Shown is an unselected part of about 59,000 deposited reagents. About 1,510 of them (2.6%) count as active. 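Calls use total luciferase alone and ignore viability, so some active siRNAs may act by altering cell number.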 Entries without a mark were called inactive. Reagents against one gene are numbered here. Not all columns of the deposit are shown. Reagent sequences are not shown.

total luciferase, z-score, by target gene and reagent
CFAP161: #1 -0.815; #2 0.391; #3 1.45
SMR3A: #1 0.452; #2 -0.608; #3 0.0995
PCDHB1: #1 3.57 (active); #2 0.816; #3 -0.135
TRIM45: #1 -0.334; #2 3.47 (active); #3 0.615
TIMMDC1: #1 1.23; #2 -0.0573; #3 2
GPR85: #1 0.723; #2 -1.28; #3 0.0306
SCGB1D2: #1 1.34; #2 1.53; #3 2.61
CBX2: #1 2.48; #2 1.05; #3 0.263
SLC16A11: #1 1.51; #2 -1.12; #3 1.28
UBE2HP1: #1 1.94; #2 1.36; #3 1.64
ACTR2: #1 -0.273; #2 0.258; #3 0.467
KLHL42: #1 -1.95; #2 -0.537; #3 -0.259
LRRC10: #1 0.358; #2 0.384; #3 0.558
SMIM19: #1 0.534; #2 1.03; #3 -1.37
H1-3: #1 1.22; #2 2.99; #3 0.222
OR4F15: #1 -1.28; #2 -1.1; #3 -2.43

5 entries from above, arranged by “total luciferase, z-score”, low to high.
Target gene	reagent no.	total luciferase, z-score
ACTR2	1	-0.273
SLC16A11	3	1.28
UBE2HP1	2	1.36
UBE2HP1	3	1.64
UBE2HP1	1	1.94

Continued:
total luciferase, z-score, by target gene and reagent
CD14: #1 0.298; #2 1.59; #3 0.409
SUFU: #1 -1.27; #2 -0.974; #3 -0.834
NARF: #1 0.587; #2 -0.154; #3 3.63 (active)
IRAK1BP1: #1 0.345; #2 -1.07; #3 0.418
GRIN2C: #1 -0.265; #2 -1; #3 0.0391
NEURL2: #1 1.12; #2 2.29; #3 2.48
ANAPC1: #1 -0.227; #2 -1; #3 -0.134
SVOP: #1 -0.0139; #2 -0.906; #3 -0.525
PPP2R3C: #1 -0.122; #2 0.454; #3 -1.68
